In PMC8605320:
No constants are given. Whether binding was seen depends on the method and setting. Binding seen in cells or lysates may run through a third protein. A result given as binding can be weak or reduced; the word gives no strength. Where a sequence is shown, tags or fusion partners need not be part of it.

Biological target: T1, SPTLC2^FLAG (WT-SPTLC2 with C-terminal 3xFLAG), in Flp-In T-REx 293 SPTLC2-KO cells (human) (UniProt O15270)
T1 sequence: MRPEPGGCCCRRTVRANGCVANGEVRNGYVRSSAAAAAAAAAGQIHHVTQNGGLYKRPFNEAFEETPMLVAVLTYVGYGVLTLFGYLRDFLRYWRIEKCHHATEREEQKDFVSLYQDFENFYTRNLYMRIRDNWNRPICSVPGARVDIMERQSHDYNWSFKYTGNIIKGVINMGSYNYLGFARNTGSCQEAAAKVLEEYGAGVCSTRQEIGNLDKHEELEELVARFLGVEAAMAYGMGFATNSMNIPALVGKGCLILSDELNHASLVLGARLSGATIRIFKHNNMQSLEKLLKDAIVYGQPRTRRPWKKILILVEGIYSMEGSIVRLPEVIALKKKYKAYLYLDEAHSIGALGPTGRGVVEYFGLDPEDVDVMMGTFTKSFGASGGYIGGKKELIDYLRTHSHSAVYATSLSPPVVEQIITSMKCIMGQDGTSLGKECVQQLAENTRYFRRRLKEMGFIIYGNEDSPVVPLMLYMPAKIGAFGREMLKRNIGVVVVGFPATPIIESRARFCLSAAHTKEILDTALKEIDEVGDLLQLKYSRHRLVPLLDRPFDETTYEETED
Test: co-IP; heavy membrane fractions of Flp-In T-REx 293 SPTLC2-KO cells with or without WT-, ER- or OM-SPTLC2^FLAG, solubilised with digitonin, FLAG-immunoprecipitation on anti-FLAG M2 beads, eluted with Laemmli buffer, immunoblotting

- binding: binds
Substance: CLPB (human (endogenous in Flp-In T-REx 293))
